# Data published in the supplement of paper PMC8728848.
# Some of the results follow.
# B1: Clec12b (Mus musculus), Q149M0 (protein)
# chain: MSDEVTYATLMLQDSARVRGNQDGNNLRKEGHPAQSSLWRGAALSLMTLCLVLVTGLVTLATMFLQVSNDINSDSEKLSQLQKSIHPQQDNLSESLNSSRKSLTEESLQSQISALLERQEQMATKLCKEFLIHASDHKCNPCPKTWQWYGNSCYYFSINEEKSWSDSRKDCIDKNATLVKIDSTEERDLLQSQLSLTFSFFWLGLSWNSSGRNWLWEDGSFPPPTLFSDKELASFNGSRDCAYFERGNIYASRCSAEIPWICEKTASLVKTEDLD
# Tests used:
# Assay in all cases: glycan array binding signal (z-score within array); higher = stronger binding
# Settings in all cases: glycan notation: IUPAC condensed, linker removed
# [1] = biological target: Fuc(a1-2)Gal(b1-4)GlcNAc(b1-3)Gal(b1-4)GlcNAc(b1-2)Man(a1-3)[Fuc(a1-2)Gal(b1-4)GlcNAc(b1-3)Gal(b1-4)GlcNAc(b1-2)Man(a1-6)]Man(b1-4)GlcNAc(b1-4)GlcNAc
# Outline: (§1)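 The binding signal is a Z-score computed within each array. Data were drawn from 3228 arrays in the Consortium for Functional Glycomics database, restricted to those with a known protein sequence. Scores were averaged over arrays of the same protein sequence at different concentrations or buffers, and over linkers, and negative values can be taken as non-binding.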
# [2] = biological target: Fuc(a1-2)Gal(b1-4)GlcNAc(b1-3)Gal(b1-4)GlcNAc(b1-3)Gal(b1-4)GlcNAc
# Outline: as §1
# [3] = biological target: Fuc(a1-2)Gal(b1-4)GlcNAc(b1-3)GalNAc
# Outline: as §1
# [4] = biological target: Fuc(a1-2)Gal(b1-4)GlcNAc(b1-3)[Fuc(a1-2)Gal(b1-4)GlcNAc(b1-6)]GalNAc
# Outline: as §1
# [5] = biological target: Fuc(a1-2)Gal(b1-4)GlcNAc(b1-3)[Fuc(a1-3)[Gal(b1-4)]GlcNAc(b1-6)]Gal(b1-4)Glc
# Outline: as §1
# [6] = biological target: Fuc(a1-2)Gal(b1-4)GlcNAc(b1-6)GalNAc
# Outline: as §1
# [7] = biological target: Fuc(a1-2)Gal(b1-4)GlcNAc6S
# Outline: as §1
# [8] = biological target: Fuc(a1-2)Gal(b1-4)[Fuc(a1-3)]GlcNAc
# Outline: as §1
# [9] = biological target: Fuc(a1-2)Gal(b1-4)[Fuc(a1-3)]GlcNAc(b1-2)Man(a1-3)[Fuc(a1-2)Gal(b1-4)[Fuc(a1-3)]GlcNAc(b1-2)Man(a1-6)]Man(b1-4)GlcNAc(b1-4)[Fuc(a1-6)]GlcNAc
# Outline: as §1
# [10] = biological target: Fuc(a1-2)Gal(b1-4)[Fuc(a1-3)]GlcNAc(b1-2)[Fuc(a1-2)Gal(b1-4)[Fuc(a1-3)]GlcNAc(b1-4)]Man(a1-3)[Fuc(a1-2)Gal(b1-4)[Fuc(a1-3)]GlcNAc(b1-2)Man(a1-6)]Man(b1-4)GlcNAc(b1-4)GlcNAc
# Outline: as §1
# [11] = biological target: Fuc(a1-2)Gal(b1-4)[Fuc(a1-3)]GlcNAc(b1-3)Gal(b1-4)[Fuc(a1-3)]GlcNAc
# Outline: as §1
# [12] = biological target: Fuc(a1-2)Gal(b1-4)[Fuc(a1-3)]GlcNAc(b1-3)Gal(b1-4)[Fuc(a1-3)]GlcNAc(b1-3)Gal(b1-4)[Fuc(a1-3)]GlcNAc
# Outline: as §1
# [13] = biological target: Fuc(a1-2)Gal(b1-4)[Fuc(a1-3)]GlcNAc(b1-3)GalNAc
# Outline: as §1
# [14] = biological target: Fuc(a1-2)Gal(b1-4)[Fuc(a1-3)]GlcNAc(b1-3)[Neu5Ac(a2-6)Gal(b1-4)GlcNAc(b1-6)]Gal(b1-4)Glc
# Outline: as §1
# [15] = biological target: Fuc(a1-2)Gal3S(b1-4)GlcNAc
# Outline: as §1
# [16] = biological target: Fuc(a1-2)Gal6S(b1-3)GlcNAc
# Outline: as §1
# [17] = biological target: Fuc(a1-2)Gal6S(b1-3)GlcNAc6S
# Outline: as §1
# [18] = biological target: Fuc(a1-2)Gal6S(b1-4)Glc
# Outline: as §1
# [19] = biological target: Fuc(a1-2)Gal6S(b1-4)Glc6S
# Outline: as §1
# [20] = biological target: Fuc(a1-2)[Gal(a1-3)]Gal
# Outline: as §1
# [21] = biological target: Fuc(a1-2)[Gal(a1-3)]Gal(b1-3)GalNAc
# Outline: as §1
# [22] = biological target: Fuc(a1-2)[Gal(a1-3)]Gal(b1-3)GalNAc(b1-3)Gal(a1-4)Gal(b1-4)Glc
# Outline: as §1
# [23] = biological target: Fuc(a1-2)[Gal(a1-3)]Gal(b1-3)GlcNAc
# Outline: as §1
# [24] = biological target: Fuc(a1-2)[Gal(a1-3)]Gal(b1-3)GlcNAc(b1-2)Man(a1-3)[Fuc(a1-2)[Gal(a1-3)]Gal(b1-3)GlcNAc(b1-2)Man(a1-6)]Man(b1-4)GlcNAc(b1-4)GlcNAc
# Outline: as §1
# [25] = biological target: Fuc(a1-2)[Gal(a1-3)]Gal(b1-3)GlcNAc(b1-2)Man(a1-3)[Fuc(a1-2)[Gal(a1-3)]Gal(b1-3)GlcNAc(b1-2)Man(a1-6)]Man(b1-4)GlcNAc(b1-4)[Fuc(a1-6)]GlcNAc
# Outline: as §1
# [26] = biological target: Fuc(a1-2)[Gal(a1-3)]Gal(b1-3)GlcNAc(b1-3)GalNAc
# Outline: as §1
# [27] = biological target: Fuc(a1-2)[Gal(a1-3)]Gal(b1-3)GlcNAc(b1-6)GalNAc
# Outline: as §1
# [28] = biological target: Fuc(a1-2)[Gal(a1-3)]Gal(b1-4)Glc
# Outline: as §1
# [29] = biological target: Fuc(a1-2)[Gal(a1-3)]Gal(b1-4)GlcNAc
# Outline: as §1
# [30] = biological target: Fuc(a1-2)[Gal(a1-3)]Gal(b1-4)GlcNAc(b1-2)Man
# Outline: as §1
binder,measurement,setting,value
B1,glycan array binding signal (z-score),[1],-0.327
same,glycan array binding signal (z-score),[2],-0.669
same,glycan array binding signal (z-score),[3],-0.546
same,glycan array binding signal (z-score),[4],-0.299
same,glycan array binding signal (z-score),[5],-0.318
same,glycan array binding signal (z-score),[6],0.471
same,glycan array binding signal (z-score),[7],-0.417
same,glycan array binding signal (z-score),[8],0.074
same,glycan array binding signal (z-score),[9],-0.372
same,glycan array binding signal (z-score),[10],2.82
same,glycan array binding signal (z-score),[11],-0.54
same,glycan array binding signal (z-score),[12],0.741
same,glycan array binding signal (z-score),[13],-0.496
same,glycan array binding signal (z-score),[14],-0.177
same,glycan array binding signal (z-score),[15],0.102
same,glycan array binding signal (z-score),[16],0.009
same,glycan array binding signal (z-score),[17],0.735
same,glycan array binding signal (z-score),[18],0.808
same,glycan array binding signal (z-score),[19],-0.568
same,glycan array binding signal (z-score),[20],0.573
same,glycan array binding signal (z-score),[21],-0.018
same,glycan array binding signal (z-score),[22],-0.052
same,glycan array binding signal (z-score),[23],1.61
same,glycan array binding signal (z-score),[24],0.021
same,glycan array binding signal (z-score),[25],-0.484
same,glycan array binding signal (z-score),[26],-0.552
same,glycan array binding signal (z-score),[27],0.184
same,glycan array binding signal (z-score),[28],0.465
same,glycan array binding signal (z-score),[29],-0.392
same,glycan array binding signal (z-score),[30],-0.596

# Nine entries from above, reformatted.
binder	measurement	setting	value
B1	glycan array binding signal (z-score)	[16]	0.009
same	glycan array binding signal (z-score)	[17]	0.735
same	glycan array binding signal (z-score)	[18]	0.808
same	glycan array binding signal (z-score)	[19]	-0.568
same	glycan array binding signal (z-score)	[20]	0.573
same	glycan array binding signal (z-score)	[21]	-0.018
same	glycan array binding signal (z-score)	[22]	-0.052
same	glycan array binding signal (z-score)	[23]	1.61
same	glycan array binding signal (z-score)	[24]	0.021
